Results are given in words; binding and its absence hold for the method and conditions named. In cells and extracts the contact can be indirect. Some results given as binding are weak or reduced against the parent protein; the word gives no strength.
How the values were obtained:
[1] = target: Myc-cypA-R55A (from pCDNA3.1-Myc-cypA-R55A) (UniProt P62937); assay: co-IP; two plasmids cotransfected into HEK293T cells; Pierce classic magnetic IP/co-IP kit, Western blot
[2] = target: GST-RSV-N (RSV nucleoprotein from pCDNA3.1-GST-RSV-N) (human respiratory syncytial virus) (UniProt P03418); assay: co-IP; HEK293T cells cotransfected with three RSV plasmids (RSV-N, RSV-P, RSV-M2-1) and Myc-cypA or Myc-cypA-R55A plasmid

Protein sequences, listed by entry. Tags and fused reporters are not part of them. Lines headed by an entry give the natural chain unless they say otherwise; changes in a name come on top.
UniProt P62937: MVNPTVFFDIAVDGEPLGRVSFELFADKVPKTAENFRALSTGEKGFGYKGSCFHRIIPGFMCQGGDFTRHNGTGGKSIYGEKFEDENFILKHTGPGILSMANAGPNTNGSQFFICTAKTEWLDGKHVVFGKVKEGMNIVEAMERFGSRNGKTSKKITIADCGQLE
UniProt P03418: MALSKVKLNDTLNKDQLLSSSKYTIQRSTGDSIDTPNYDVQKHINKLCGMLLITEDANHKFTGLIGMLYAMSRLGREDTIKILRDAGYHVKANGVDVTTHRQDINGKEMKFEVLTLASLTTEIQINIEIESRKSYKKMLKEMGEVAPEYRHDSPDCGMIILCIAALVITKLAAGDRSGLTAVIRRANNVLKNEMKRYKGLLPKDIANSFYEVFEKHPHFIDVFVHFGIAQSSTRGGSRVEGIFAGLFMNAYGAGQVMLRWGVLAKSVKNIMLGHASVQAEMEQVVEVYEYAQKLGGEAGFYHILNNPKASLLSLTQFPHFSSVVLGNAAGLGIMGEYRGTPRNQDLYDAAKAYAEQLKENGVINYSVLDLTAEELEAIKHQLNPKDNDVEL
UniProt P03421: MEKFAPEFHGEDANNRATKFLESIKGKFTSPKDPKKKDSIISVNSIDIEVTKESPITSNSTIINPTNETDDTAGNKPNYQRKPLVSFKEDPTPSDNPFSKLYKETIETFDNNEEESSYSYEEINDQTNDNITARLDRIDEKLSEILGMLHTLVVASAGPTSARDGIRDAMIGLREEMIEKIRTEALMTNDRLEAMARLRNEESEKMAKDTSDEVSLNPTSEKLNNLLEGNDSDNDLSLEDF

Substance | binding [1] | binding [2]
GST-RSV-N (RSV nucleoprotein from pCDNA3.1-GST-RSV-N) (from UniProt P03418 1-391) | no binding | –
HA-RSV-P (RSV phosphoprotein from pCDNA3.1-HA-RSV-P) (from UniProt P03421 1-241) | – | binds
